The list shows only some results of the screen, not a fair sample: it is rich in T/C values a quarter to a half above the control, in often repeated tests (any T/C) and in doses without a T/C. Further doses and runs are listed elsewhere. T/C is the treated group as % of the vehicle group. Some entries give survivors of the animals treated and no T/C: the source holds a T/C of zero for them, seemingly a mark for toxic or unscored doses. Some doses without a T/C left all or most animals alive at the check, yet need not have been tolerated: the source hardly ever lists a survival T/C far under the control, and the zero likely stands for such cases as well. Survivors were counted at the toxicity check, usually on the fifth day, unless a day is given; later deaths do not show. Schedules are NCI's codes, taken here to give the interval after Q, in days (D) or hours (H), and the number of doses after X. Some doses were run more than once; the results are listed from low to high. Where survival is the endpoint, this PubChem deposit counts one and a half times the control or more as active, and values a quarter to a half above the control carry no call in these data; other NCI protocols may use other cut-offs. Some T/C values are followed by the survivors on the day toxicity was checked, most often the fifth; where none is given, no animal had died by that day.

We go through 18 compounds from PubChem BioAssay AID330 (DTP/NCI, 2004).

The test relates to P388 leukemia ip, CD2F1 mice, survival T/C. Description: NCI In Vivo Anticancer Drug Screen. Data for tumor model P388 Leukemia (intraperitoneal) in CD2F1 (CDF1) mice. The following applies: T/C endpoint: median survival time, higher T/C = longer survival.
Where [1] appears, read: dose: 200.0 mg/kg/injection, schedule: Q01DX005 (ip), vehicle: saline.
The mark [2] stands for this setting: dose: 50.0 mg/kg/injection, schedule: Q01DX009 (ip), vehicle: saline with Tween-80.
Where [3] appears, read: dose: 100.0 mg/kg/injection, schedule: Q01DX009 (ip), vehicle: saline with Tween-80.
Where [4] appears, read: dose: 200.0 mg/kg/injection, schedule: Q01DX009 (ip), vehicle: saline with Tween-80.
Setting [5] is: dose: 200.0 mg/kg/injection, schedule: Q01DX005 (ip), vehicle: saline with Tween-80.
Where [6] appears, read: dose: 200.0 mg/kg/injection, schedule: Q01DX009 (ip), vehicle: saline.

On to `CC(=O)Nc1ccsc1`, for which the survivor count is given as 1 of 6 under setting [1] and 0 of 6 (dose: 400.0 mg/kg/injection, schedule: Q01DX005 (ip), vehicle: saline).
Turning to `CC1(O)c2ccccc2[P+](C)(c2ccccc2)c2ccccc21` (configuration not stated), the survivor count reads like this: under setting [2], 3 of 6 and 5 of 6; under setting [3], 4 of 6; under setting [4], 3 of 6.
Take `Cc1ccc(NCCCC2CCCN3CCCCC23)c2c(=O)c3cc(O)ccc3sc12` (configuration not stated): the survivor count is 0 of 6 (dose: 200.0 mg/kg/injection, schedule: Q01DX001 (ip), vehicle: saline with Tween-80) and 0 of 6 (dose: 400.0 mg/kg/injection, schedule: Q01DX001 (ip), vehicle: saline with Tween-80).
With `COC(=O)[C@@]12OC[C@]34[C@H]([C@@H](O)[C@@H]1O)[C@@]1(C)CC(=O)C(OC(=O)CC(=O)OC5=C(C)[C@@H]6C[C@H]7OC(=O)[C@H](OC(=O)/C=C(\C)C(C)C)[C@H]8[C@]9(C(=O)OC)OC[C@]78[C@H]([C@@H](O)[C@@H]9O)[C@@]6(C)CC5=O)=C(C)[C@@H]1C[C@H]3OC(=O)[C@H](OC(=O)/C=C(\C)C(C)C)[C@@H]24`, the T/C by setting is: (dose: 0.38 mg/kg/injection, schedule: Q01DX009 (ip), vehicle: saline + Tween-80 + alcohol) 128 % of control; (dose: 0.75 mg/kg/injection, schedule: Q01DX005 (ip), vehicle: saline + Tween-80 + alcohol) 127 % of control; (dose: 0.75 mg/kg/injection, schedule: Q01DX009 (ip), vehicle: saline + Tween-80 + alcohol) 146 % of control; (dose: 1.5 mg/kg/injection, schedule: Q01DX005 (ip), vehicle: saline + Tween-80 + alcohol) 129 and 132 % of control; (dose: 1.5 mg/kg/injection, schedule: Q01DX009 (ip), vehicle: saline + Tween-80 + alcohol) 140 % of control; (dose: 3.0 mg/kg/injection, schedule: Q01DX005 (ip), vehicle: saline + Tween-80 + alcohol) 125 and 148 % of control. For the same compound, the T/C (dose: 6.0 mg/kg/injection, schedule: Q01DX005 (ip), vehicle: saline + Tween-80 + alcohol) is 138 and 141 % of control. For the same compound, the survivor count is 0 of 6 (dose: 3.0 mg/kg/injection, schedule: Q01DX009 (ip), vehicle: saline + Tween-80 + alcohol) and 0 of 6 (dose: 6.0 mg/kg/injection, schedule: Q01DX009 (ip), vehicle: saline + Tween-80 + alcohol).
On to `O=C(NCCCCN1CC1)C(=O)NCCCCN1CC1`, for which, for the setting “dose: 1.56 mg/kg/injection, schedule: Q04DX003 (ip), vehicle: Klucel (hydroxypropylcellulose) (HPC)”, the T/C was 134 % of control.
On to `C1=C(CC2=C[P+](c3ccccc3)(c3ccccc3)C=C(c3ccccc3)O2)OC(c2ccccc2)=C[P+]1(c1ccccc1)c1ccccc1`, for which the T/C reads like this: (dose: 1.5 mg/kg/injection, schedule: Q01DX005 (ip), vehicle: saline with Tween-80) 125 % of control; (dose: 1.5 mg/kg/injection, schedule: Q01DX005 (ip), vehicle: saline) 127 % of control; (dose: 3.0 mg/kg/injection, schedule: Q01DX005 (ip), vehicle: saline with Tween-80) 125 % of control [4 of 5 alive]. Further, the survivor count is 0 of 5 (dose: 6.0 mg/kg/injection, schedule: Q01DX005 (ip), vehicle: saline with Tween-80); 2 of 5 (dose: 6.0 mg/kg/injection, schedule: Q01DX005 (ip), vehicle: saline); 4 of 5 (dose: 12.5 mg/kg/injection, schedule: Q01DX005 (ip), vehicle: saline with Tween-80); 0 of 5 (dose: 25.0 mg/kg/injection, schedule: Q01DX005 (ip), vehicle: saline with Tween-80); 0 of 5 (dose: 50.0 mg/kg/injection, schedule: Q01DX005 (ip), vehicle: saline with Tween-80).
Regarding `COC1=C(C2=C(OC)C(=O)c3cc4c(c(O)c3C2=O)C(=O)OC(C)C4)C(=O)c2c(cc3c(c2O)C(=O)OC(C)C3)C1=O` (configuration not stated), the survivor count reads like this: under setting [2], 4 of 6; under setting [3], 5 of 6; under setting [4], 4 of 6.
For `C1CN(CC2CCC(CN3CCOCC3)O2)CCO1` (configuration not stated), the T/C (dose: 12.5 mg/kg/injection, schedule: Q01DX005 (ip), vehicle: Klucel (hydroxypropylcellulose) (HPC)) was 125 % of control. The survivor count by setting is: (dose: 25.0 mg/kg/injection, schedule: Q01DX005 (ip), vehicle: Klucel (hydroxypropylcellulose) (HPC)) 2 of 6; (dose: 50.0 mg/kg/injection, schedule: Q01DX005 (ip), vehicle: Klucel (hydroxypropylcellulose) (HPC)) 4 of 5; (dose: 100.0 mg/kg/injection, schedule: Q01DX005 (ip), vehicle: Klucel (hydroxypropylcellulose) (HPC)) 0 of 5; (dose: 200.0 mg/kg/injection, schedule: Q01DX005 (ip), vehicle: Klucel (hydroxypropylcellulose) (HPC)) 0 of 5.
For the compound `CCN(CC)CCCNC(=O)c1noc2cc([N+](=O)[O-])ccc12`, the survivor count is 3 of 5 (dose: 50.0 mg/kg/injection, schedule: Q01DX005 (ip), vehicle: saline); 0 of 5 (dose: 100.0 mg/kg/injection, schedule: Q01DX005 (ip), vehicle: saline); 0 of 5 under setting [1].
Regarding `C1=C(c2ccccc2)C(c2ccc(OCCN3CCCCC3)cc2)Oc2ccccc21` (configuration not stated), under setting [5], the survivor count is listed as 6 of 6.
`CCN(CC)CC(C)Nc1cc(C)nc2c1ccc1c2ccc2c(NC(C)CN(CC)CC)cc(C)nc21` (configuration not stated): the survivor count (dose: 100.0 mg/kg/injection, schedule: Q01DX009 (ip), vehicle: distilled water + Tween-80) is 0 of 6.
Take `COc1ccc(-c2nccc3cc(OC)c(OC)cc23)cc1O`: the survivor count by setting is: (dose: 200.0 mg/kg/injection, schedule: Q01DX009 (ip), vehicle: other) 3 of 6; (dose: 400.0 mg/kg/injection, schedule: Q01DX009 (ip), vehicle: other) 0 of 6.
For `NC(Cc1cccs1)C(=O)Nc1nncs1` (configuration not stated), the T/C (dose: 200.0 mg/kg/injection, schedule: Q04DX002 (ip), vehicle: saline) was 136 % of control and the T/C (dose: 600.0 mg/kg/injection, schedule: Q04DX002 (ip), vehicle: suspension in saline) was 138 % of control.
For the compound `COc1cc(CCN)ccc1OCc1ccccc1`, the survivor count under setting [6] was 2 of 6.
Turning to `CN1[C@H]2CC[C@@H]1[C@@H](O)CC2`, the survivor count under setting [5] was 2 of 6.
Regarding `CS(=O)(=O)OCC1COCC1COS(C)(=O)=O` (configuration not stated), the T/C (dose: 100.0 mg/kg/injection, schedule: Q04DX003 (ip), vehicle: Klucel (hydroxypropylcellulose) (HPC)) was 125 % of control [5 of 6 alive]; the T/C (dose: 200.0 mg/kg/injection, schedule: Q04DX003 (ip), vehicle: Klucel (hydroxypropylcellulose) (HPC)) is 130 % of control; the T/C (dose: 400.0 mg/kg/injection, schedule: Q04DX003 (ip), vehicle: Klucel (hydroxypropylcellulose) (HPC)) was 144 % of control.
In the case of `O=C(c1ccc(Cl)cc1)N1CCN(C(=O)N2CCN(C(=O)N3CCN(C(=O)c4ccc(Cl)cc4)CC3)CC2)CC1`, the survivor count was 6 of 6 (dose: 60.0 mg/kg/injection, schedule: Q01DX005 (ip), vehicle: saline with Tween-80) and 6 of 6 (dose: 120.0 mg/kg/injection, schedule: Q01DX005 (ip), vehicle: saline with Tween-80).
As to `CCCCCC[N+]1(CC)CCCC1`, the survivor count reads like this: (dose: 0.78 mg/kg/injection, schedule: Q01DX009 (ip), vehicle: saline) 5 of 6; (dose: 1.56 mg/kg/injection, schedule: Q01DX009 (ip), vehicle: saline) 6 of 6; (dose: 6.12 mg/kg/injection, schedule: Q01DX009 (ip), vehicle: saline) 6 of 6; (dose: 12.5 mg/kg/injection, schedule: Q01DX009 (ip), vehicle: saline) 6 of 6; (dose: 25.0 mg/kg/injection, schedule: Q01DX009 (ip), vehicle: saline) 5 of 6; (dose: 50.0 mg/kg/injection, schedule: Q01DX009 (ip), vehicle: saline) 3 of 6. The survivor count by setting is: (dose: 100.0 mg/kg/injection, schedule: Q01DX009 (ip), vehicle: saline) 0 of 6; under setting [6], 0 of 6.
